CoaBC: 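Enzyme assay of CoaBC with a phosphate dye (Biomol Green) read at 650 nm. Target: Coenzyme A biosynthesis protein CoaBC, Mycobacterium tuberculosis (UniProt P9WNZ1). Tested at 30 µM. Direction is inferred from only a few compounds that gave an IC50; most scored high, so higher reads as stronger inhibition. Most strong results did not repeat in a second test. About 67,000 compounds were tested under these conditions; 0.06% (about 40) showed 50% or more at least once.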
TcHisRS: 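Histidine-tRNA ligase, Trypanosoma cruzi CL Brener (UniProt Q4DA54). Enzyme assay of histidyl-tRNA synthetase; the read-out is not stated. Tested at 30 µM. Direction is inferred from retests: higher values go with stronger inhibition. Size under these conditions: about 69,000 compounds, about 31 of them at 50% or above in at least one test.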

Protein sequences, listed by entry. Tags and fused reporters are not part of them. Residues count along the entry.
UniProt P9WNZ1, whole entry: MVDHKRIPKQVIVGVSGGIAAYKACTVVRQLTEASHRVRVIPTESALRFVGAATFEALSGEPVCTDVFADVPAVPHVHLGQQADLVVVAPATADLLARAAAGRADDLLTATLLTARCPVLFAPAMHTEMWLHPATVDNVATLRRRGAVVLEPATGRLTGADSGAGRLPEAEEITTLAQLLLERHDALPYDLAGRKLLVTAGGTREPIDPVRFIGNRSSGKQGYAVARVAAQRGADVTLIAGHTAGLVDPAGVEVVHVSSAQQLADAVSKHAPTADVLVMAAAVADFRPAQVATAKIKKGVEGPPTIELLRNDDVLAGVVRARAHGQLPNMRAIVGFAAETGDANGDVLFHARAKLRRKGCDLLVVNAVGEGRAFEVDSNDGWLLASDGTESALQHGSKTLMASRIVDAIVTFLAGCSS
UniProt Q4DA54, 1-478: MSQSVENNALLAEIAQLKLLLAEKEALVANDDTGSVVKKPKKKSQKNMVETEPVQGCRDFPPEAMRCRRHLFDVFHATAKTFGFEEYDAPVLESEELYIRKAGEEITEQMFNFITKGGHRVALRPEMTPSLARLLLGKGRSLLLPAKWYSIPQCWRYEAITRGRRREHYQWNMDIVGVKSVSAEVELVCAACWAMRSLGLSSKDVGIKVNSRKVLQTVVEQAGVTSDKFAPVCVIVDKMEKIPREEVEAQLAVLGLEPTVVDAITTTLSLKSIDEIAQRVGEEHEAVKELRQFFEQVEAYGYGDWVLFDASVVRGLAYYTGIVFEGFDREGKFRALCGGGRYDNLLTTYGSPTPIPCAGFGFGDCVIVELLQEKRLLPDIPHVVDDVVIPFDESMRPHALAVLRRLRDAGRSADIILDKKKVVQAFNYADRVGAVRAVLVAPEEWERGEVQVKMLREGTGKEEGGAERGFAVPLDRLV

Each number is a percent effect as filed.
The controls that fix the scale are not given in the record; negative values are as filed.
This is an unselected part of the compounds tested.

{"smiles": "Cc1cncnc1C1CCN(CCO)CC1", "CoaBC": 7.363, "TcHisRS": 10}
{"smiles": "CC(C)c1noc(C(C)N2CCN(Cc3cccs3)CC2)n1", "stereo": "stereo not drawn", "CoaBC": 4.563, "TcHisRS": 1.156}
{"smiles": "CC1CCN(c2ncc3c(n2)CN(c2ccccc2)C3=O)CC1", "CoaBC": 2.727, "TcHisRS": 4.184}
{"smiles": "CN1CC2(CCN(C(=O)CCc3nc4cccnc4n3C)C2)OC1=O", "stereo": "stereo not drawn", "CoaBC": -2.033, "TcHisRS": 1.288}
{"smiles": "CCOCc1cncc2c1CCN(C(=O)c1cscn1)C2", "CoaBC": 3.837, "TcHisRS": 6.533}
{"smiles": "Cc1nn(CCO)c(C)c1CNC1CCc2c(Cl)cccc21", "stereo": "stereo not drawn", "CoaBC": 7.589, "TcHisRS": 0.4149}
{"smiles": "CCCc1cc(N2CCCC2Cn2cc(C)cn2)n2ncnc2n1", "stereo": "stereo not drawn", "TcHisRS": 5.263}
{"smiles": "O=S(=O)(Cc1ccccc1Cl)N1CCC2(CC1)OCCS2", "CoaBC": 5.499, "TcHisRS": 10.88}
{"smiles": "COc1ccc(Br)c(C(=O)NCC2CC2)c1", "CoaBC": 1.24, "TcHisRS": -6.667}
{"smiles": "COCc1nc(C(=O)N2CCCC2c2ccc(OC)cc2)cs1", "stereo": "stereo not drawn", "CoaBC": 3.435, "TcHisRS": 4.507}
{"smiles": "Cc1ccc(-c2nc(CN3CCCC3Cn3cc(C)cn3)no2)cc1", "stereo": "stereo not drawn", "CoaBC": 4.563, "TcHisRS": 1.887}
{"smiles": "O=C1CCC2(CCN(c3cccc(C(F)(F)F)n3)CC2)CN1CCO", "CoaBC": -12.27, "TcHisRS": 7.303}
{"smiles": "Cc1ccoc1C(=O)N1CCO[C@H]2[C@H](OCc3ccncc3)CC[C@@H]21", "CoaBC": 0.7407, "TcHisRS": 3.738}
{"smiles": "CC(=O)N(C)c1nc(CN2CCN(Cc3nccn3C)CC2)cs1", "CoaBC": 2.439, "TcHisRS": 3.922}
{"smiles": "COc1ccccc1CC(C)CC(=O)N(C)Cc1cc(C)on1", "stereo": "stereo not drawn", "CoaBC": -3.694, "TcHisRS": 4.972}
{"smiles": "O=C(NC[C@]12COC[C@H]1CN(Cc1nccs1)C2)c1cscn1", "CoaBC": 3.258, "TcHisRS": 4.878}
{"smiles": "Cc1nn(-c2ccccc2)nc1C(=O)N1CCCC1c1cnn(C)c1", "stereo": "stereo not drawn", "CoaBC": 11.8, "TcHisRS": -0.3831}
{"smiles": "Cc1nc(C(=O)N2CCCC2c2c(C)nn(C)c2C)cs1", "stereo": "stereo not drawn", "CoaBC": 0.1272, "TcHisRS": 0}
{"smiles": "CN(C)CCNC(=O)c1ccc(OC2CCN(C3CCC3)CC2)c(Cl)c1", "CoaBC": -33.48, "TcHisRS": 2.326}
{"smiles": "Cn1cc(CN2Cc3c(cnn3C)C(COCC3CC3)C2)cn1", "stereo": "stereo not drawn", "CoaBC": 0.1233, "TcHisRS": 4.386}
{"smiles": "O=C(c1ccoc1)N1CCCCC1c1nc[nH]n1", "stereo": "stereo not drawn", "CoaBC": -3.667, "TcHisRS": -1.093}
{"smiles": "Cc1nn(C)c(C)c1C1CCCN1C(=O)c1ccc(CN(C)C)cc1", "stereo": "stereo not drawn", "CoaBC": -3.035, "TcHisRS": -1.916}
{"smiles": "CN1CCCC(c2nc3c([nH]2)CC(C)(C)CNC3=O)C1", "stereo": "stereo not drawn", "CoaBC": -6.114, "TcHisRS": 2.116}
{"smiles": "CN(C(=O)c1ncn2c1CN(C)S(=O)(=O)c1ccccc1-2)C1CC1", "CoaBC": 4.039, "TcHisRS": -6.03}
{"smiles": "O=C(c1n[nH]cc1Cl)N1CCCC(n2nnc3cc(F)ccc32)C1", "stereo": "stereo not drawn", "CoaBC": -1.225, "TcHisRS": -2.128}
{"smiles": "CCN(Cc1ccc(C(C)C)cc1)C(=O)c1csc(CN(C)C)n1", "CoaBC": -5.411, "TcHisRS": 5.6}
{"smiles": "CS(=O)(=O)NC1(CCc2ccc(NC(=O)C3CC3)nc2)CCCCC1", "CoaBC": 1.456, "TcHisRS": 1.916}
{"smiles": "Cc1cc(C(=O)Nc2cc(C3CC3)n[nH]2)c2c(C)nn(C)c2n1", "CoaBC": 7.524, "TcHisRS": 10.89}
{"smiles": "CC(=O)Nc1nc(C2CCN(C(=O)Cc3ccccc3)CC2)cs1", "CoaBC": 2.206, "TcHisRS": 1.064}
{"smiles": "Cc1oncc1C(=O)N1CCC2(CC1)CC(N1CCOCC1)C2", "CoaBC": 2.588, "TcHisRS": 1.442}
{"smiles": "CCn1cc(N2Cc3nc(N4CCC(C)CC4)ncc3C2=O)cn1", "CoaBC": 1.848, "TcHisRS": -5.217}
{"smiles": "COc1cccc(-n2nnc(C(=O)N3CCNC(=O)C3)c2C)c1", "CoaBC": 2.073, "TcHisRS": 0.7634}
{"smiles": "CC(O)CN1CCN(Cc2nnc(C3CC3)o2)CC1", "stereo": "stereo not drawn", "CoaBC": -0.2571, "TcHisRS": -0.7519}
{"smiles": "Cc1cc(NCc2csc(-c3ccco3)n2)ccc1C(N)=O", "CoaBC": 0.1965, "TcHisRS": 5.172}
{"smiles": "COc1ncccc1CN1CC[C@]2(C[C@@H](OCc3ccccn3)CO2)C1", "CoaBC": 7.268, "TcHisRS": 4.878}
{"smiles": "O=C1N(Cc2ccccn2)C[C@H]2CN(S(=O)(=O)c3ccccc3)CCN12", "CoaBC": 6.876, "TcHisRS": 0.4975}
{"smiles": "O=C(c1cnc2c(cnn2C2CCCC2)c1)N1CCCSCC1", "CoaBC": 12.06, "TcHisRS": 5.814}
{"smiles": "N#Cc1ccnc(N2CCN(C(=O)Cc3ccc4c(c3)CCO4)CC2)c1", "CoaBC": 2.926, "TcHisRS": 0.3802}
{"smiles": "Cc1noc(C)c1CSCc1nc(N)c2ccccc2n1", "CoaBC": -1.789, "TcHisRS": -1.961}
{"smiles": "Cc1cc(CN2CCN(C(=O)C(C)C)[C@@H]3CS(=O)(=O)C[C@@H]32)ccc1F", "CoaBC": 0.4219, "TcHisRS": 4.878}
{"smiles": "CC(=O)N(Cc1ncc(C)o1)C1CCN(Cc2cc(C)on2)C1", "stereo": "stereo not drawn", "CoaBC": -2.089, "TcHisRS": 6.122}
{"smiles": "CN(C)c1ncccc1NC(=O)COCC1CC1", "CoaBC": -4.136, "TcHisRS": 4.242}
{"smiles": "CC(C)(O)CN1CC(C)(C)CN(C(=O)CCc2ccccc2)CC1=O", "CoaBC": -0.4843, "TcHisRS": 4.494}
{"smiles": "COC(=O)CC(NC(=O)c1ccc(OC)cc1OC)c1cccs1", "stereo": "stereo not drawn", "CoaBC": 3.944, "TcHisRS": -1.69}

Once more, the final 4:

* CC(=O)N(Cc1ncc(C)o1)C1CCN(Cc2cc(C)on2)C1 (stereo not drawn) : CoaBC: -2.089%; TcHisRS: 6.122%
* CN(C)c1ncccc1NC(=O)COCC1CC1 : CoaBC: -4.136%; TcHisRS: 4.242%
* CC(C)(O)CN1CC(C)(C)CN(C(=O)CCc2ccccc2)CC1=O : CoaBC: -0.4843%; TcHisRS: 4.494%
* COC(=O)CC(NC(=O)c1ccc(OC)cc1OC)c1cccs1 (stereo not drawn) : CoaBC: 3.944%; TcHisRS: -1.69%

Measurements from “University of Dundee, Small-Polar-MMV Screening Library” (2021), ChEMBL document CHEMBL3988442.